# In patent US6469057B1, “Methods for in vivo reduction of free radical levels and compositions useful therefor” (MCW Research Foundation, Inc., priority 1995, dated 2002):
# At least one structure is not confirmed: it was looked up by name or label, or the drawing left a doubt.
# Tested on: NO
# Assay: Ex vivo EPR measurement of [(MGD)2/Fe-NO] levels in the urine of normal mice
# Conditions: NMMA 50 mg/kg i.p., dexamethasone 3 mg/kg i.v. pretreatment
compound,measurement,value
C[C@@H]1C[C@H]2[C@@H]3CCC4=CC(=O)C=C[C@]4(C)[C@@]3(F)[C@@H](O)C[C@]2(C)[C@@]1(O)C(=O)CO [Dexamethasone],effect on the [(MGD)2/Fe-NO] EPR signal in urine,negligible effects
